In paper PMC3285607 one finds binding data, which are given here for one substance.

The chains behind the UniProt entries cited, without tags or fusion partners. Where a name states a change or a piece, a line headed by the entry shows the natural chain unless it says otherwise.
UniProt P09471: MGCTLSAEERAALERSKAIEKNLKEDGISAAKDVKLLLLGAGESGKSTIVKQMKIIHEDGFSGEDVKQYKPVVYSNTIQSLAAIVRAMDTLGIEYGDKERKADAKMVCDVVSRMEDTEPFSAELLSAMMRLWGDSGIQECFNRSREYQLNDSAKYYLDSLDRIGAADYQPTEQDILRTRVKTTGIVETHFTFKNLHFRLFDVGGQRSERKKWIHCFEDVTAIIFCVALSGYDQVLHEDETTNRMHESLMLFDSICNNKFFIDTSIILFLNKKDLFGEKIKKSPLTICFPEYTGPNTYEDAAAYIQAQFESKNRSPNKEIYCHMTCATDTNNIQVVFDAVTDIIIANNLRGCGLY

The target of assay [1] is T1, GST fusion of the RGS12 RGS domain (aa 664–885) (UniProt O14924).
T1 sequence: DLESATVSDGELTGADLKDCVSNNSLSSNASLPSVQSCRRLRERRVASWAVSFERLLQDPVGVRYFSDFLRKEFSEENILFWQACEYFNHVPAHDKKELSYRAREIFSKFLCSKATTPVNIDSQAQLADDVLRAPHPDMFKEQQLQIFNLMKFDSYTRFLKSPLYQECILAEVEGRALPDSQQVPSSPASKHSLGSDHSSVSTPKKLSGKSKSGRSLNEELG
In words: SPR; Biacore 3000; GST-RGS12 RGS domain captured on anti-GST antibody on a CM5 chip; Gαo injected in the presence of GDP, GTP or GTPγS; both purified. Background: SPR reads the build-up and loss of mass on a sensor chip optically.

The target of assay [2] is T1, GST fusion of the RGS12 RGS domain (aa 664–885). In words: SPR; Biacore 3000; GST-RGS12 RGS domain captured on anti-GST antibody on a CM5 chip; Gαo injected in the GDP·AlF4- state; equilibrium binding isotherm; both purified.

No constants are given. Whether binding was seen depends on the method and setting. Tags and fused reporters may be left off the sequences shown.

Take “GαoA(G42R), full-length, hexahistidine-tagged (from UniProt P09471 1-354)”: the binding result in assay [1] and in assay [2] was “no binding (tested: 25 µM)” each time.
